In assay [1] the target is GST-tagged Δ14Arf3-GTP (Q71L) (UniProt P61204). The assay is described as follows: pull-down; pull-downs of GORAB and Scyl1 with GTP- and GDP-locked Arfs (Supplementary Figure 1F); set-up not shown.
Assay [2] has as its target GST-tagged Δ14Arf1 Q71L (UniProt P84077). The assay is described as above.
Assay [3] has the same target. The assay is described as follows: pull-down; direct binding of GORAB and Scyl1 to Arf1 (Supplementary Figure 1G); set-up not shown; both purified.
The target in assay [4] is recombinant N-myristoylated human ARF1 (human) (UniProt P84077). The assay is described as follows: liposome recruitment assay; Golgi-lipid liposomes (200 nm) with 10 µM MBP-Scyl1, 10 µM recombinant coatomer, 5 µM myr-ARF1, some with 100 µM GTPγS, 37 °C 20 min; flotation on sucrose, western blotting; both purified.
The target of assay [5] is Scyl1 (yeast two-hybrid fusion) (UniProt Q96KG9). The assay is described as follows: two-hybrid; Matchmaker Gold system, yeast strain Y2HGold; AD prey and BD bait co-transformed; growth on quadruple drop-out (SD/-Ade/-His/-Leu/-Trp) plates at 30 °C.

Protein sequences, listed by entry. Tags and fused reporters are not part of them. Lines headed by an entry give the natural chain unless they say otherwise; changes in a name come on top. Chains listed by the source or under a name are the forms on record and can include a tag or linker.
GST-tagged Δ14Arf3-GTP (Q71L) (P61204, form named): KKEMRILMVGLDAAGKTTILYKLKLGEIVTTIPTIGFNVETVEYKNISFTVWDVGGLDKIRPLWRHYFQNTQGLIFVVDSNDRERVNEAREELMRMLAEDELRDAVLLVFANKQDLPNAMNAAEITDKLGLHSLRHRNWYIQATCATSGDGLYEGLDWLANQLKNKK
UniProt P84077: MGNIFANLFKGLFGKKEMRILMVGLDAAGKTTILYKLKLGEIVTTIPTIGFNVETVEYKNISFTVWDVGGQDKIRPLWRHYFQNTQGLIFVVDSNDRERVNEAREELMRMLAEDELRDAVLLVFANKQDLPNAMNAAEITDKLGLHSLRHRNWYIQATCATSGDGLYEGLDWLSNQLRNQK
GST-tagged Δ14Arf1 Q71L (P84077, form named): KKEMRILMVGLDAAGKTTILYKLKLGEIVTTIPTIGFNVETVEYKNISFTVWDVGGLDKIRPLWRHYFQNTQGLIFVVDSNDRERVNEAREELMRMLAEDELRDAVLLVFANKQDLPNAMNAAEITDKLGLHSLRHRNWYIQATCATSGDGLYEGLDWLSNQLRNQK

No constants are given. Whether binding was seen depends on the method and setting. For some assays here: In cells and extracts the contact can be indirect. Some entries that bind do so weakly or less than the wild type. For some assays here: Tags and fused reporters may be left off the sequences shown.

B1: Scyl1 (construct and source of Supplementary Figure 1 not shown) (protein, UniProt Q96KG9 1-808)
chain: MWFFARDPVRDFPFELIPEPPEGGLPGPWALHRGRKKATGSPVSIFVYDVKPGAEEQTQVAKAAFKRFKTLRHPNILAYIDGLETEKCLHVVTEAVTPLGIYLKARVEAGGLKELEISWGLHQIVKALSFLVNDCSLIHNNVCMAAVFVDRAGEWKLGGLDYMYSAQGNGGGPPRKGIPELEQYDPPELADSSGRVVREKWSADMWRLGCLIWEVFNGPLPRAAALRNPGKIPKTLVPHYCELVGANPKVRPNPARFLQNCRAPGGFMSNRFVETNLFLEEIQIKEPAEKQKFFQELSKSLDAFPEDFCRHKVLPQLLTAFEFGNAGAVVLTPLFKVGKFLSAEEYQQKIIPVVVKMFSSTDRAMRIRLLQQMEQFIQYLDEPTVNTQIFPHVVHGFLDTNPAIREQTVKSMLLLAPKLNEANLNVELMKHFARLQAKDEQGPIRCNTTVCLGKIGSYLSASTRHRVLTSAFSRATRDPFAPSRVAGVLGFAATHNLYSMNDCAQKILPVLCGLTVDPEKSVRDQAFKAIRSFLSKLESVSEDPTQLEEVEKDVHAASSPGMGGAAASWAGWAVTGVSSLTSKLIRSHPTTAPTETNIPQRPTPEGVPAPAPTPVPATPTTSGHWETQEEDKDTAEDSSTADRWDDEDWGSLEQEAESVLAQQDDWSTGGQVSRASQVSNSDHKSSKSPESDWSSWEAEGSWEQGWQEPSSQEPPPDGTRLASEYNWGGPESSDKGDPFATLSARPSTQPRPDSWGEDNWEGLETDSRQVKAELARKKREERRREMEAKRAERKVAKGPMKLGARKLD
Turning to B1, the binding result (in assay [1]; in the assay with GST-tagged Δ14Arf1 Q71L [2]; in the assay with GST-tagged Δ14Arf1 Q71L [3]) was “binds” throughout.

B2: MBP-Scyl1 (protein, UniProt Q96KG9 1-808)
chain: MWFFARDPVRDFPFELIPEPPEGGLPGPWALHRGRKKATGSPVSIFVYDVKPGAEEQTQVAKAAFKRFKTLRHPNILAYIDGLETEKCLHVVTEAVTPLGIYLKARVEAGGLKELEISWGLHQIVKALSFLVNDCSLIHNNVCMAAVFVDRAGEWKLGGLDYMYSAQGNGGGPPRKGIPELEQYDPPELADSSGRVVREKWSADMWRLGCLIWEVFNGPLPRAAALRNPGKIPKTLVPHYCELVGANPKVRPNPARFLQNCRAPGGFMSNRFVETNLFLEEIQIKEPAEKQKFFQELSKSLDAFPEDFCRHKVLPQLLTAFEFGNAGAVVLTPLFKVGKFLSAEEYQQKIIPVVVKMFSSTDRAMRIRLLQQMEQFIQYLDEPTVNTQIFPHVVHGFLDTNPAIREQTVKSMLLLAPKLNEANLNVELMKHFARLQAKDEQGPIRCNTTVCLGKIGSYLSASTRHRVLTSAFSRATRDPFAPSRVAGVLGFAATHNLYSMNDCAQKILPVLCGLTVDPEKSVRDQAFKAIRSFLSKLESVSEDPTQLEEVEKDVHAASSPGMGGAAASWAGWAVTGVSSLTSKLIRSHPTTAPTETNIPQRPTPEGVPAPAPTPVPATPTTSGHWETQEEDKDTAEDSSTADRWDDEDWGSLEQEAESVLAQQDDWSTGGQVSRASQVSNSDHKSSKSPESDWSSWEAEGSWEQGWQEPSSQEPPPDGTRLASEYNWGGPESSDKGDPFATLSARPSTQPRPDSWGEDNWEGLETDSRQVKAELARKKREERRREMEAKRAERKVAKGPMKLGARKLD
B2: the binding result in assay [4] was “binds”.

B3: Scyl1 (yeast two-hybrid fusion) (protein, UniProt Q96KG9 1-808)
chain: MWFFARDPVRDFPFELIPEPPEGGLPGPWALHRGRKKATGSPVSIFVYDVKPGAEEQTQVAKAAFKRFKTLRHPNILAYIDGLETEKCLHVVTEAVTPLGIYLKARVEAGGLKELEISWGLHQIVKALSFLVNDCSLIHNNVCMAAVFVDRAGEWKLGGLDYMYSAQGNGGGPPRKGIPELEQYDPPELADSSGRVVREKWSADMWRLGCLIWEVFNGPLPRAAALRNPGKIPKTLVPHYCELVGANPKVRPNPARFLQNCRAPGGFMSNRFVETNLFLEEIQIKEPAEKQKFFQELSKSLDAFPEDFCRHKVLPQLLTAFEFGNAGAVVLTPLFKVGKFLSAEEYQQKIIPVVVKMFSSTDRAMRIRLLQQMEQFIQYLDEPTVNTQIFPHVVHGFLDTNPAIREQTVKSMLLLAPKLNEANLNVELMKHFARLQAKDEQGPIRCNTTVCLGKIGSYLSASTRHRVLTSAFSRATRDPFAPSRVAGVLGFAATHNLYSMNDCAQKILPVLCGLTVDPEKSVRDQAFKAIRSFLSKLESVSEDPTQLEEVEKDVHAASSPGMGGAAASWAGWAVTGVSSLTSKLIRSHPTTAPTETNIPQRPTPEGVPAPAPTPVPATPTTSGHWETQEEDKDTAEDSSTADRWDDEDWGSLEQEAESVLAQQDDWSTGGQVSRASQVSNSDHKSSKSPESDWSSWEAEGSWEQGWQEPSSQEPPPDGTRLASEYNWGGPESSDKGDPFATLSARPSTQPRPDSWGEDNWEGLETDSRQVKAELARKKREERRREMEAKRAERKVAKGPMKLGARKLD
For B3, the binding result in assay [5] is reported as “binds”.
